Measurements reported in PubChem BioAssay AID1053208 (Peter MacCallum Cancer Centre, 2014).

- Assay: 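Find knock-downs that sensitise mouse osteosarcoma cells to doxorubicin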 (primary screen)
- System: mouse osteosarcoma cells, early-passage culture from an engineered mouse model of fibroblastic bone tumour
- Reagents: siRNA pool against mouse genes, 40 nM
- Timing: about 120 h (48 h before drug, then 72 h with drug)
- Conditions: doxorubicin 100 nM for 72 h, roughly 30-40% inhibitory dose
- Detection: 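Luminescent ATP signal taken as viability with or without 100 nM doxorubicin for 72 h; mean of two wells set against non-targeting siRNA and turned into robust z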
- Scale: viability z-score with doxorubicin: higher = more viable cells under doxorubicin; viability z-score without drug: higher = more viable cells with knock-down alone; z-score of drug to no-drug ratio: higher = less drug sensitisation by knock-down
- Call rule: 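a pool counts as active when its viability z-score with doxorubicin is -2 or below and its z-score without drug lies between -2 and 2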
The whole screen tested about 17,000 reagents; this is an unselected part. Of all reagents, 788 (4.7%) got an active call. 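Calls rest on z-score classes alone; an extra cut-off of viability at most 70% of control was not applied to them.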 A number with no mark means an inactive call. Further read-outs or replicates are left out here.

| target gene | PubChem SID | combined z-score class | viability z-score with doxorubicin | viability z-score without drug | z-score of drug to no-drug ratio |
| --- | --- | --- | --- | --- | --- |
| Uts2 (urotensin 2) | SID152273876 | no change with or without drug | 0.45 | 0.17 | 0.45 |
| Gbp3 (guanylate binding protein 3) | SID152293038 | no change with or without drug | -0.45 | -0.51 | 0 |
| Cct8 (chaperonin containing TCP1 subunit 8) | SID152341587 | low cell count without drug only | -1.69 | -3.71 | 1.12 |
| Tgm1 (transglutaminase 1, K polypeptide) | SID152306047 | no change with or without drug | 0.9 | 0.17 | 0.9 |
| Usp50 (ubiquitin specific peptidase 50) | SID152259487 | low cell count with doxorubicin only (active) | -2.02 | 0.67 | -2.36 |
| P2rx4 (purinergic receptor P2X, ligand-gated ion channel 4) | SID152327883 | no change with or without drug | 0.56 | -0.84 | 1.35 |
| Or8b53 (olfactory receptor family 8 subfamily B member 53) | SID152289742 | no change with or without drug | -1.57 | -1.18 | -0.79 |
| Ints3 (integrator complex subunit 3) | SID152320585 | no change with or without drug | -0.9 | 0.17 | -0.9 |
| Fmr1 (fragile X messenger ribonucleoprotein 1) | SID152270209 | no change with or without drug | 0.22 | 0.51 | 0 |
| Tmem45b (transmembrane protein 45b) | SID152313322 | no change with or without drug | 0.45 | 0.34 | 0.34 |
| Clec4a3 (C-type lectin domain family 4, member a3) | SID152302734 | no change with or without drug | 0.56 | 0.17 | 0.56 |
| Ptpn1 (protein tyrosine phosphatase, non-receptor type 1) | SID152316586 | no change with or without drug | 0.67 | 0.17 | 0.67 |
| Creb3 (cAMP responsive element binding protein 3) | SID152305277 | no change with or without drug | -0.9 | -0.17 | -0.79 |
| Prss34 (serine protease 34) | SID152319465 | no change with or without drug | 0 | -1.01 | 0.9 |
| Zyx (zyxin) | SID152279230 | no change with or without drug | 1.01 | -0.67 | 1.69 |
| Paox (polyamine oxidase (exo-N4-amino)) | SID152332365 | no change with or without drug | -1.12 | -0.84 | -0.56 |
| Wfdc12 (WAP four-disulfide core domain 12) | SID152305943 | low cell count without drug only | -1.91 | -2.36 | -0.34 |
| Acta1 (actin alpha 1, skeletal muscle) | SID152321510 | no change with or without drug | -0.67 | -1.52 | 0.45 |
| Ftsj1 (FtsJ RNA 2'-O-methyltransferase 1) | SID152279883 | no change with or without drug | 0.45 | -1.18 | 1.46 |
| Dlgap4 (DLG associated protein 4) | SID152292423 | no change with or without drug | -0.22 | 0.51 | -0.45 |
